PubChem BioAssay AID504764 – Drosophila RNAi Screening Center, 2011

- Screen: 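Genes whose knock-down alters Notch-dependent transcription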 (primary screen)
- Cell system: Drosophila Kc167 cells
- Reagent: long dsRNA against Drosophila genes
- Time to read-out: about 5 days (4 days dsRNA, then 24 h after transfection)
- Challenge: transfection of constitutively active membrane-tethered Notch lacking the extracellular domain, read 24 h later
- Measurement: 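Light from a Notch-responsive E(spl)m3 luciferase reporter under active Notch, with control-promoter and no-Notch reporter wells to normalise; raw counts from paired wells a and b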
- Direction: induced reporter light, run 1, well a and induced reporter light, run 1, well b: higher = more light from the Notch target reporter with active Notch; control promoter light, run 1, well a and control promoter light, run 1, well b: higher = more light from the viral control promoter (cell number, transfection, viability); uninduced reporter light, run 1, well a: higher = more light from the Notch target reporter without active Notch
- Call rule: 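Hit if the duplicate-averaged log2 ratio of induced to control-promoter light gives a plate-wise z beyond ±2, or induced to uninduced beyond ±1.8; weak-control or discordant-duplicate wells dropped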
- Calls: active = modifier hit (raised or lowered Notch signal); inactive = not a hit
In all, the deposit lists about 22,000 reagents; shown is an unselected part of those that have a named target and a result. Of all reagents, 403 (1.9%) were called active. 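Unnormalised raw counts per well; ratio z-scores behind the hit calls and whether each hit raises or lowers signal are not deposited.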 Unmarked entries are inactive. The numbers tell different reagents against one gene apart. A plus sign joins genes that one reagent is predicted to hit. The record does not give: the amount of reagent.

| gene knocked down | reagent no. | induced reporter light, run 1, well a | induced reporter light, run 1, well b | control promoter light, run 1, well a | control promoter light, run 1, well b | uninduced reporter light, run 1, well a |
| --- | --- | --- | --- | --- | --- | --- |
| Octbeta1R | 1 | 1.88e5 | 1.75e5 | 1.91e5 | 2.11e5 | 13540 |
| Dph5 | 1 | 94155 | 1.05e5 | 1.21e5 | 1.04e5 | 12055 |
| CG41020 (retired record) | 1 | 2.12e5 | 2.23e5 | 2.87e5 | 3.10e5 | 16550 |
| Prx2 | 1 | 1.21e5 | 1.16e5 | 1.94e5 | 1.69e5 | 8475 |
| CG31115 | 1 | 1.84e5 | 1.99e5 | 1.61e5 | 1.71e5 | 17285 |
| eEFSec | 1 | 49390 | 55305 | 39290 | 32290 | 3005 |
| Mipp2 | 1 | 1.85e5 | 2.02e5 | 2.38e5 | 2.48e5 | 15285 |
| CrzR | 1 | 2.32e5 | 2.09e5 | 2.79e5 | 1.92e5 | 14042 |
| CrzR | 2 | 2.66e5 | 1.51e5 | 2.85e5 | 1.76e5 | 10010 |
| Jhbp11 | 1 | 2.43e5 (active) | 2.89e5 | 2.14e5 | 2.46e5 | 15638 |
| CG11000 | 1 | 87335 | 1.12e5 | 87430 | 60355 | 7460 |
| LIMK1 | 1 | 1.88e5 | 1.75e5 | 2.47e5 | 1.87e5 | 14805 |
| snRNP-U1-70K | 1 | 68655 | 58880 | 83315 | 56375 | 3310 |
| Prx6c + CG12896 + Prx6b | 1 | 1.59e5 | 1.81e5 | 2.28e5 | 2.29e5 | 14235 |
| Gr33a | 1 | 1.10e5 (active) | 1.11e5 | 1.43e5 | 1.59e5 | 8925 |
| mtSSB | 1 | 2.71e5 | 2.32e5 | 2.52e5 | 2.30e5 | 20275 |
| CG14427 | 1 | 1.79e5 | 1.76e5 | 4.22e5 | 3.23e5 | 12175 |
| CG32459 | 1 | 1.21e5 | 1.04e5 | 1.07e5 | 80330 | 7050 |
| CG34320 (retired record) | 1 | 51250 | 70490 | 59130 | 68085 | 4260 |
| TwdlE | 1 | 1.62e5 | 1.63e5 | 99900 | 1.16e5 | 22315 |
| CG31759 | 1 | 1.41e5 | 1.42e5 | 1.85e5 | 1.83e5 | 9395 |
| Trmt112 | 1 | 1.55e5 | 1.36e5 | 1.40e5 | 1.21e5 | 8975 |

Laid out differently: entries from further up.
CG41020 (retired record) — induced reporter light, run 1, well a: 2.12e5; induced reporter light, run 1, well b: 2.23e5; control promoter light, run 1, well a: 2.87e5; control promoter light, run 1, well b: 3.10e5; uninduced reporter light, run 1, well a: 16550
Prx2 — induced reporter light, run 1, well a: 1.21e5; induced reporter light, run 1, well b: 1.16e5; control promoter light, run 1, well a: 1.94e5; control promoter light, run 1, well b: 1.69e5; uninduced reporter light, run 1, well a: 8475
CG31115 — induced reporter light, run 1, well a: 1.84e5; induced reporter light, run 1, well b: 1.99e5; control promoter light, run 1, well a: 1.61e5; control promoter light, run 1, well b: 1.71e5; uninduced reporter light, run 1, well a: 17285
eEFSec — induced reporter light, run 1, well a: 49390; induced reporter light, run 1, well b: 55305; control promoter light, run 1, well a: 39290; control promoter light, run 1, well b: 32290; uninduced reporter light, run 1, well a: 3005
Mipp2 — induced reporter light, run 1, well a: 1.85e5; induced reporter light, run 1, well b: 2.02e5; control promoter light, run 1, well a: 2.38e5; control promoter light, run 1, well b: 2.48e5; uninduced reporter light, run 1, well a: 15285

Further results follow:
| gene knocked down | reagent no. | induced reporter light, run 1, well a | induced reporter light, run 1, well b | control promoter light, run 1, well a | control promoter light, run 1, well b | uninduced reporter light, run 1, well a |
| --- | --- | --- | --- | --- | --- | --- |
| CG4942 | 1 | 1.17e5 | 1.22e5 | 99200 | 57280 | 10050 |
| rtet | 1 | 1.65e5 | 1.68e5 | 1.53e5 | 1.68e5 | 13220 |
| CG15212 | 1 | 1.02e5 | 90920 | 99165 | 1.09e5 | 6155 |
| CG14147 | 1 | 1.79e5 | 1.32e5 | 1.53e5 | 1.68e5 | 7400 |
| Abcd3 | 1 | 1.49e5 | 1.15e5 | 1.43e5 | 2.04e5 | 14160 |
| ppk24 | 1 | 1.42e5 | 1.24e5 | 2.26e5 | 2.18e5 | 11370 |
| CG31910 + snoRNA:Me28S-G2743 (retired record) | 1 | 1.11e5 | 97950 | 1.27e5 | 1.30e5 | 9305 |
| CG13048 | 1 | 1.50e5 | 1.72e5 | 1.92e5 | 1.97e5 | 12340 |
| Vps20 | 1 | 1.95e5 | 1.64e5 | 1.47e5 | 1.72e5 | 13578 |
| CG1138 | 1 | 90540 | 83980 | 80305 | 68625 | 6710 |
| CG2493 | 1 | 1.60e5 | 1.99e5 | 1.42e5 | 1.54e5 | 13500 |
| Sugb | 1 | 97440 | 89090 | 83505 | 39100 | 8370 |
| GstT1 | 1 | 1.61e5 | 1.63e5 | 2.15e5 | 1.97e5 | 15090 |
| CG11414 | 1 | 2.17e5 | 1.77e5 | 1.92e5 | 2.35e5 | 15375 |
| CPT2 | 1 | 1.54e5 | 1.35e5 | 2.33e5 | 2.62e5 | 10610 |
| CG32054 | 1 | 1.97e5 | 1.50e5 | 1.85e5 | 1.88e5 | 9825 |
| sncRNA:430e + His2A:CG33859 + His2A:CG33817 + 37 more | 1 | 92665 | 1.08e5 | 1.03e5 | 1.16e5 | 9345 |
| CG11380 | 1 | 34395 | 36845 | 21600 | 29690 | 5720 |
| Phae1 | 1 | 2.05e5 | 2.05e5 | 1.64e5 | 2.26e5 | 17830 |
| Phs | 1 | 1.56e5 | 1.25e5 | 1.13e5 | 1.20e5 | 10028 |
| CG31198 | 1 | 1.80e5 | 1.89e5 | 2.14e5 | 2.27e5 | 17155 |
| CG33500 | 1 | 1.53e5 | 1.53e5 | 1.15e5 | 1.06e5 | 16135 |
| CG34149 | 1 | 1.89e5 | 1.65e5 | 2.37e5 | 2.10e5 | 15165 |
| CG13482 | 1 | 1.71e5 | 2.06e5 | 87340 | 1.16e5 | 9865 |
| CG9706 | 1 | 1.67e5 | 1.87e5 | 90185 | 96970 | 10245 |
| Zaf1 | 1 | 62255 | 85230 | 68185 | 54470 | 4650 |
| CG10588 | 1 | 41125 | 37585 | 45045 | 31480 | 3892 |
| Trs31 | 1 | 1.31e5 | 1.40e5 | 1.31e5 | 1.28e5 | 12532 |
